Results reported in the supplement of paper PMC10849652.
This is one part of the list.

By UniProt entry, the sequences of proteins in these tests, tags left out. Where a name states a change or a piece, a line headed by the entry shows the natural chain unless it says otherwise.
UniProt Q99643: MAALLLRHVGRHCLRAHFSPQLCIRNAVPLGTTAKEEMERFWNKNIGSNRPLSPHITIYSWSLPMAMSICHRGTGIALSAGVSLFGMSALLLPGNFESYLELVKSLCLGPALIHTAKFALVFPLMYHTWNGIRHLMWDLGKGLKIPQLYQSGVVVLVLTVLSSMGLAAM
UniProt Q8IZE3: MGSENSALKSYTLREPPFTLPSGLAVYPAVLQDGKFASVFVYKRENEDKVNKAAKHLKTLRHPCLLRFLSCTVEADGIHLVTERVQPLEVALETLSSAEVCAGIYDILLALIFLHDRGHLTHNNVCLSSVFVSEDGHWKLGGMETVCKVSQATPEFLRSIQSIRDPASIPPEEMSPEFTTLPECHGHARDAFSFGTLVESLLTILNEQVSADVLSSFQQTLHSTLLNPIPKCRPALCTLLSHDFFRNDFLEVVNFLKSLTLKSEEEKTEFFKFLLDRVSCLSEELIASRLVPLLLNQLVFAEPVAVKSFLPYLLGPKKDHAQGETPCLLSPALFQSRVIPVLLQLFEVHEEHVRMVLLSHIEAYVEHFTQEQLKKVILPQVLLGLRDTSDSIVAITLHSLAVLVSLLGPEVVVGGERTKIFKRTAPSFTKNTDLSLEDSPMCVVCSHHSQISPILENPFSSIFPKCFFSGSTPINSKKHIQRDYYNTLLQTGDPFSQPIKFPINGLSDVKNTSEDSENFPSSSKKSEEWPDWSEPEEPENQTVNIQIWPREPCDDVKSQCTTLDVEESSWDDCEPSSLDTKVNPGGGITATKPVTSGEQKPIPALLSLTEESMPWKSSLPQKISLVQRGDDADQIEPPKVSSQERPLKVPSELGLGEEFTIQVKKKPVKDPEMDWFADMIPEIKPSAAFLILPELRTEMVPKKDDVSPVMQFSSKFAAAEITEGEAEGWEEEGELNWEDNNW
UniProt Q13228: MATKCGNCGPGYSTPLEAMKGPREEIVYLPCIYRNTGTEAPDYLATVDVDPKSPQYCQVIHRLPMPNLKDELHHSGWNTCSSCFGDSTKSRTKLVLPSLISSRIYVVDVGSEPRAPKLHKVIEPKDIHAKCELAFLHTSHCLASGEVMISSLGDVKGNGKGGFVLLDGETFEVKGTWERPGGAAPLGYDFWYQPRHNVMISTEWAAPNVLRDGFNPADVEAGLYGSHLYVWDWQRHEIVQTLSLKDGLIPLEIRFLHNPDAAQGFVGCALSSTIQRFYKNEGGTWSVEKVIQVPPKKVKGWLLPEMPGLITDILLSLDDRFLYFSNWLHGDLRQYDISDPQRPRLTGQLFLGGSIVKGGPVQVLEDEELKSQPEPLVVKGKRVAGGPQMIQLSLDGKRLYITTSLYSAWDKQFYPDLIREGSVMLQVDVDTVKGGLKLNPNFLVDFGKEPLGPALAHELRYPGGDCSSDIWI
UniProt O75396: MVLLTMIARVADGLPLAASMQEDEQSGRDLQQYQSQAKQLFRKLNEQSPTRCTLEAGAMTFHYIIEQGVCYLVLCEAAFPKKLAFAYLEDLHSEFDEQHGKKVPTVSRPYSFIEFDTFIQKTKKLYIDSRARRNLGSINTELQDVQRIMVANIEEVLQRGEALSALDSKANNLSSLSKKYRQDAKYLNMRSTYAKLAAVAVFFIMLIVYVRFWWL
UniProt P62341, whole entry, looked up: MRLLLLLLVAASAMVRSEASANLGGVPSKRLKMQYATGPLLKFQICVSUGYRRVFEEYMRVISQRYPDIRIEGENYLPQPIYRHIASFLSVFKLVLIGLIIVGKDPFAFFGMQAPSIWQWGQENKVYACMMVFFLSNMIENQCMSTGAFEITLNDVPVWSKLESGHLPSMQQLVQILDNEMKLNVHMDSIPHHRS
UniProt Q9Y6U3: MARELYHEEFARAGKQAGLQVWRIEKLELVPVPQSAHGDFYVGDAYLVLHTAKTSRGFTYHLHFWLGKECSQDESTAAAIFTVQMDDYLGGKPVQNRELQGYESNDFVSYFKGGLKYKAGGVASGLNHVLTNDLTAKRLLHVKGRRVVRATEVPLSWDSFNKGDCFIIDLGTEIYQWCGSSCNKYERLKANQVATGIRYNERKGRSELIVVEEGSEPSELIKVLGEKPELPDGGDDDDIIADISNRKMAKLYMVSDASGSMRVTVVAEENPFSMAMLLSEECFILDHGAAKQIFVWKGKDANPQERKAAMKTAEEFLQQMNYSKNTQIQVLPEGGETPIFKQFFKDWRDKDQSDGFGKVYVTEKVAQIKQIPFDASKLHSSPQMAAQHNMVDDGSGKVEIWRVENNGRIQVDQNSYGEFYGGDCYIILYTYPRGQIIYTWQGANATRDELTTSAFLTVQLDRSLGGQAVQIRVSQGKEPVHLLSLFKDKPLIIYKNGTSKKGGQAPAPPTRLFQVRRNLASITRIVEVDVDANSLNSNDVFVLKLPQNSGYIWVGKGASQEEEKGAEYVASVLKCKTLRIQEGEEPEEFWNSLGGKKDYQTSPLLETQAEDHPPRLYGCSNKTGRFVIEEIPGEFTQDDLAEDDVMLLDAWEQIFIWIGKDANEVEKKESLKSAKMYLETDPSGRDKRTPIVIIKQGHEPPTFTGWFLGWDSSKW
UniProt Q9C0D9, whole entry, looked up: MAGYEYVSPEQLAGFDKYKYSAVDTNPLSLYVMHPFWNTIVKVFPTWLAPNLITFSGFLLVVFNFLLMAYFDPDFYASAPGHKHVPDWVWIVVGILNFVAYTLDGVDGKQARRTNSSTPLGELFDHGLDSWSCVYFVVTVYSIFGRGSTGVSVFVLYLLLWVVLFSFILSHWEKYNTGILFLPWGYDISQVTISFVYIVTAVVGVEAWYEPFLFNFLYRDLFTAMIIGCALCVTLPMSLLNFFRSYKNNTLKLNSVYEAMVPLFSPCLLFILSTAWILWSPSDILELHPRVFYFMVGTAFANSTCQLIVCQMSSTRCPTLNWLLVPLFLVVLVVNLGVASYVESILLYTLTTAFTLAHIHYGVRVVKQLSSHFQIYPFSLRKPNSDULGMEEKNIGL
UniProt Q6UWP8: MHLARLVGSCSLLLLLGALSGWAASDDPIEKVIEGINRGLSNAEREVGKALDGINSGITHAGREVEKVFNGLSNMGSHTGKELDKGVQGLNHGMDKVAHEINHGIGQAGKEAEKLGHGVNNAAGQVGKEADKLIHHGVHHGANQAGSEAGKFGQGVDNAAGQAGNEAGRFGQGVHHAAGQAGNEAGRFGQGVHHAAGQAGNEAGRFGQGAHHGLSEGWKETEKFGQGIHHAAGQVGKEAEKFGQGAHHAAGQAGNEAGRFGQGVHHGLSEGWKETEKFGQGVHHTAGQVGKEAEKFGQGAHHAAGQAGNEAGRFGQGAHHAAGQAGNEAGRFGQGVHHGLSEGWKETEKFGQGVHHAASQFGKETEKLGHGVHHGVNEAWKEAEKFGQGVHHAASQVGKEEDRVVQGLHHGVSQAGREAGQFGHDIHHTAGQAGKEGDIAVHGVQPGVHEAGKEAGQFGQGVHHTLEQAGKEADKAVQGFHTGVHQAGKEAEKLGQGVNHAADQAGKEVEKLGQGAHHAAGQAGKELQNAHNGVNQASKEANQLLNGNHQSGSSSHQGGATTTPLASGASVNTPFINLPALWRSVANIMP
UniProt Q9NZV5, whole entry, looked up: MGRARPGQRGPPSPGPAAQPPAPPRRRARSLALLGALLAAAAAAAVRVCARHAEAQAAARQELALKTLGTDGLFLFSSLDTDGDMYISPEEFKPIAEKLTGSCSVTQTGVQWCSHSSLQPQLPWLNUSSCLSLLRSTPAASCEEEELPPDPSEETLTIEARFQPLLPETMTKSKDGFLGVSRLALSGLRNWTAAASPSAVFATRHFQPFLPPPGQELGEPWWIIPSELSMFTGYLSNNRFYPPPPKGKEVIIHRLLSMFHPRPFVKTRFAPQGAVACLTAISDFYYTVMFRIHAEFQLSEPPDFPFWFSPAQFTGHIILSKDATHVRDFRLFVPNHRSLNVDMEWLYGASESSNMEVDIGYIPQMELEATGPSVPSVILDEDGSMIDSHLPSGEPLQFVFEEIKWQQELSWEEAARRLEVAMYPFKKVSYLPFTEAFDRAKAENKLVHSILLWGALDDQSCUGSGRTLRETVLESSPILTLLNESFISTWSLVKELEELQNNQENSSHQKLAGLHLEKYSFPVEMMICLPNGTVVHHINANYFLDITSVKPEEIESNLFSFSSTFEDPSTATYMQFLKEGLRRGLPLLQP
UniProt Q6SZW1: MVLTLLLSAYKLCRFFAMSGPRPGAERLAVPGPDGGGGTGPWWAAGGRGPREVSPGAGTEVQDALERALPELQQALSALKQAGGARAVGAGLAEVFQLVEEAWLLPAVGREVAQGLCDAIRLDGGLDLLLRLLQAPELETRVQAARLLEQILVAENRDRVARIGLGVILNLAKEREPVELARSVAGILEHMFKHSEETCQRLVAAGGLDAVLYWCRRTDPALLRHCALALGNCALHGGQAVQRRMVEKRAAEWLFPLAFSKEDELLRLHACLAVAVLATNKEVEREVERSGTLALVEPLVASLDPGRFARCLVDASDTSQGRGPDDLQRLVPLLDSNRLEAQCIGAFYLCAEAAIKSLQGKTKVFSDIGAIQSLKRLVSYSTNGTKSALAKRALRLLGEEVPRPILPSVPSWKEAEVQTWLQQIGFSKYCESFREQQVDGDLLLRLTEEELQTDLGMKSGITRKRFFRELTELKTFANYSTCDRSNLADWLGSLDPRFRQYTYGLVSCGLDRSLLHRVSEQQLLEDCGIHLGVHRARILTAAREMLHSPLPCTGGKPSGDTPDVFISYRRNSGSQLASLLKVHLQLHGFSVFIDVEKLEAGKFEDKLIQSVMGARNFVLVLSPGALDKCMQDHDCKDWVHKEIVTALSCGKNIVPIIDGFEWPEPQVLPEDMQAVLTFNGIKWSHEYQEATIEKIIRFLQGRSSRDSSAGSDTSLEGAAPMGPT
UniProt Q9H0E3: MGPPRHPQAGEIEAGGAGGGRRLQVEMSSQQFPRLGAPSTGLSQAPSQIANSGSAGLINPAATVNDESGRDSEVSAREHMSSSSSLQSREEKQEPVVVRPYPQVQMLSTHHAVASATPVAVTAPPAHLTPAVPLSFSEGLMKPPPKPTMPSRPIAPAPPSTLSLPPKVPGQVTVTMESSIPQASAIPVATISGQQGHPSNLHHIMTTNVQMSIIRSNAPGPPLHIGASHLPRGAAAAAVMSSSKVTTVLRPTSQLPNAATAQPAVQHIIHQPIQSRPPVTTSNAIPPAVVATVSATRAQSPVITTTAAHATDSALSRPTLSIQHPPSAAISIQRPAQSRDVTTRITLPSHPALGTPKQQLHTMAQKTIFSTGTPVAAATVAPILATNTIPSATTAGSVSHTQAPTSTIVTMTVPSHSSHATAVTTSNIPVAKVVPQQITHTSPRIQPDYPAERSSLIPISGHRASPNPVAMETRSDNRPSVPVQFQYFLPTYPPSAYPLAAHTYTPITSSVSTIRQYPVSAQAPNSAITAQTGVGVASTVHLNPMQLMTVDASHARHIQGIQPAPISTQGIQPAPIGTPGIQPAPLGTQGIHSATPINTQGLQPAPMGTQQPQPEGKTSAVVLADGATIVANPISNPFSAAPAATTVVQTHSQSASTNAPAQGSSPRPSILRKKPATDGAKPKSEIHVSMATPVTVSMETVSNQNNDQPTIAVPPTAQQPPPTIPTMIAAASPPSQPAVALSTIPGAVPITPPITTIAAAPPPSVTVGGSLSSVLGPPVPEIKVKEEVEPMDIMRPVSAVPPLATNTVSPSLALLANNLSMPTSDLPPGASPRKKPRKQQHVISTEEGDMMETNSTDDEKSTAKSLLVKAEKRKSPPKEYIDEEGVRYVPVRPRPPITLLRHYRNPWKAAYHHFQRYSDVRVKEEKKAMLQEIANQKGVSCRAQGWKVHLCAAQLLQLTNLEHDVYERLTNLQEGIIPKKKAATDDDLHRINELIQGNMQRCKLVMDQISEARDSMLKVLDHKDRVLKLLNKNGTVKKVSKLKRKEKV
UniProt Q8WXD2: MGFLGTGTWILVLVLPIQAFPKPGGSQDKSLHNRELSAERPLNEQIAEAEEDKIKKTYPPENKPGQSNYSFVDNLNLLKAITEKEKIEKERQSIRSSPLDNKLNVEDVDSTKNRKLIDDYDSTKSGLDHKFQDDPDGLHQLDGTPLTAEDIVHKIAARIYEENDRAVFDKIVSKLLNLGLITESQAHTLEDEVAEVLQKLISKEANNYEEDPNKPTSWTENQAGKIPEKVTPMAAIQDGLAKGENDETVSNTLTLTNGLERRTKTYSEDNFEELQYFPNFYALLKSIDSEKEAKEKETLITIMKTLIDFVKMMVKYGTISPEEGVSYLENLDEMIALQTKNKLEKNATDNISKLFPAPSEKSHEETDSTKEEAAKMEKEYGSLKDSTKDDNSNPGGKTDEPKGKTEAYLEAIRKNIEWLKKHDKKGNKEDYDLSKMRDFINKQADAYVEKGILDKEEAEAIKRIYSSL
UniProt Q5VUM1: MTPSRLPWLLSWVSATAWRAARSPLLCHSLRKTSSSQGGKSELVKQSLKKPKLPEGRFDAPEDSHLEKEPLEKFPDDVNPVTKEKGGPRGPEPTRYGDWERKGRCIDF
UniProt O60613, whole entry, looked up: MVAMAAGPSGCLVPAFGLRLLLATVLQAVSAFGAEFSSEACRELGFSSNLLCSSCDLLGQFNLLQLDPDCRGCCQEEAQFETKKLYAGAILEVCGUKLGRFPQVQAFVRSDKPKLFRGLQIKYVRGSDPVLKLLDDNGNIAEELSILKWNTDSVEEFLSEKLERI

What was measured:
Test in all cases: log2 fold change, soluble protein after heating vs DMSO (PISA); higher = thermal stabilisation; K562 lysate, 10 uM; active = over 0.2 and 3.5 SD of the protein, either way, in both replicates (recomputed)
erlotinib = compound: C#Cc1cccc(Nc2ncnc3cc(OCCOC)c(OCCOC)cc23)c1 [erlotinib]
Summary of the method: (§1)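 Dounce homogenisation of K562 pellets in PBS pH 7.4 with 1 mM MgCl2 produced a crude extract, used at 1 mg/mL protein. Exposure to 10 μM compound lasted 30 min, and aliquots were then heated for 3 min across 48°C-58°C, pooled and brought to 0.5% NP-40 at 4°C. The supernatant after 21,000xg for 90 min was quantified by TMTpro 16plex LC-MS/MS with channel sums equalised. Duplicate values are given as log-two fold change in thermal stability relative to solvent controls.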

[1] = compound: C/C(=N\NC(=O)C1=CC(=CC=C1)S(=O)(=O)N2CCOCC2)/C3=C(C=CC(=C3)Cl)O
Summary of the method: as §1

[2] = compound: C1=CC(=CC=C1C2=NC3=C(N2)C=C(C=C3)C(=O)N)OC4=CC=C(C=C4)Cl
Summary of the method: as §1

[3] = compound: C1=CC2=C(C=CC(=C2)/C=C\3/C(=O)NC(=NCC4=CC=CS4)S3)N=C1
Summary of the method: as §1

[4] = compound: C1=CC2=NC=CN=C2C=C1/C=C/3\C(=O)NC(=O)S3
Summary of the method: as §1

[5] = compound: C1=CC=C(C=C1)C2=NC(=C(N2)C3=CC=NC=C3)C4=CC(=C(C=C4)Cl)O
Summary of the method: as §1

[6] = compound: C1=CC=C2C(=C1)C3=NNC4=CC=CC(=C43)C2=O
Summary of the method: as §1

[7] = compound: C1CCN(C1)C(=O)NC2=CC=CC(=C2)NC3=NC=C(C(=N3)NCCC4=CN=CN4)Br
Summary of the method: as §1

[8] = compound: C1CN(CCC1(CC2=CC=C(C=C2)Cl)N)C3=NC=NC4=C3C=CN4
Summary of the method: as §1

IRAK-1-4 Inhibitor I = compound: C1COCCN1CCN2C3=CC=CC=C3N=C2NC(=O)C4=CC(=CC=C4)[N+](=O)[O-] [IRAK-1-4 Inhibitor I]
Summary of the method: as §1

Measured: log2 fold change

SBF1 isoform 4 (UniProt O95248)
inactive: erlotinib 0.033 | [1] -0.059 | [2] 0.042 | [3] -0.052 | [4] -0.005 | [5] -0.027 | [6] -0.029 | [7] 0.028 | [8] -0.026 | IRAK-1-4 Inhibitor I -0.002

SDHC (UniProt Q99643)
inactive: erlotinib 0.013 | [1] 0.002 | [2] 0.001 | [3] 0 | [4] -0.048 | [5] -0.01 | [6] 0.02 | [7] -0.02 | [8] -0.067 | IRAK-1-4 Inhibitor I 0.032

SCARB2 (UniProt Q14108)
inactive: erlotinib -0.052 | [1] 0.022 | [2] 0.024 | [3] 0.024 | [4] 0.004 | [5] 0.017 | [6] 0.048 | [7] 0.029 | [8] -0.065 | IRAK-1-4 Inhibitor I 0.004

SAFB2 (UniProt Q14151)
inactive: erlotinib -0.002 | [1] -0.03 | [2] 0.003 | [3] 0.002 | [4] 0.017 | [5] 0.02 | [6] 0.004 | [7] -0.018 | [8] -0.027 | IRAK-1-4 Inhibitor I -0.012

SCYL3 isoform 2 (UniProt Q8IZE3)
inactive: erlotinib 0 | [1] -0.084 | [2] 0.047 | [3] 0.038 | [4] 0.014 | [5] 0.004 | [6] -0.054 | [7] -0.001 | [8] 0.008 | IRAK-1-4 Inhibitor I 0.027

SCAF4 (UniProt O95104)
inactive: erlotinib 0.049 | [1] 0.021 | [2] 0.039 | [3] 0 | [4] -0.038 | [5] -0.007 | [6] -0.069 | [7] -0.034 | [8] 0.025 | IRAK-1-4 Inhibitor I -0.04

SCAF1 (UniProt Q9H7N4)
inactive: erlotinib 0.016 | [1] 0.113 | [2] 0.066 | [3] 0.218 | [4] 0.025 | [5] -0.022 | [6] 0.033 | [7] 0.047 | [8] 0.041 | IRAK-1-4 Inhibitor I 0.081

SELENBP1 isoform 4 (UniProt Q13228)
inactive: erlotinib -0.015 | [1] -0.048 | [2] 0.023 | [3] -0.006 | [4] 0 | [5] -0.012 | [6] 0.029 | [7] 0.015 | [8] 0.02 | IRAK-1-4 Inhibitor I 0.014

SEC24C (UniProt P53992)
inactive: erlotinib 0.04 | [1] -0.032 | [2] 0.016 | [3] -0.014 | [4] -0.014 | [5] 0.007 | [6] -0.026 | [7] -0.013 | [8] 0.008 | IRAK-1-4 Inhibitor I 0.006

SEC22B (UniProt O75396)
inactive: erlotinib 0.025 | [1] 0.023 | [2] -0.002 | [3] -0.038 | [4] -0.005 | [5] -0.016 | [6] 0.001 | [7] -0.002 | [8] 0.038 | IRAK-1-4 Inhibitor I -0.046

SEC11C (UniProt Q9BY50)
inactive: erlotinib 0.046 | [1] -0.029 | [2] -0.079 | [3] 0.021 | [4] 0.038 | [5] -0.167 | [6] -0.089 | IRAK-1-4 Inhibitor I 0.013

SDHB, A0A087WWT1
inactive: erlotinib 0.012 | [1] -0.146 | [2] -0.169 | [3] -0.006 | [5] 0.181 | [6] -0.091 | [7] 0.066 | [8] 0.014 | IRAK-1-4 Inhibitor I -0.043

SDHD (UniProt O14521)
inactive: erlotinib -0.054 | [1] -0.065 | [2] -0.029 | [3] -0.003 | [5] -0.091 | [6] 0.102 | [7] -0.184 | [8] -0.108 | IRAK-1-4 Inhibitor I -0.018

SEM1 (UniProt P60896)
inactive: erlotinib -0.196 | [2] -0.103

SELENOT (UniProt P62341)
inactive: erlotinib -0.039 | [2] 0.025 | [4] -0.235 | [5] -0.081 | [7] -0.163 | [8] 0.094 | IRAK-1-4 Inhibitor I 0.028

SCIN (UniProt Q9Y6U3)
inactive: erlotinib 0 | [1] 0.013 | [2] 0.023 | [3] 0.013 | [4] -0.017 | [5] 0.002 | [6] 0.003 | [7] -0.008 | [8] -0.001 | IRAK-1-4 Inhibitor I 0.028

SECISBP2L (UniProt Q93073)
inactive: erlotinib 0.088 | [1] -0.013 | [2] 0.023 | [3] 0.097 | [4] -0.358 | [5] 0.008 | [6] 0.144 | [7] 0.121 | [8] 0.077 | IRAK-1-4 Inhibitor I 0.12

SENP3 (UniProt Q9H4L4)
inactive: erlotinib 0.081 | [1] -0.019 | [2] -0.083 | [3] 0.026 | [6] 0.217 | [7] 0.455 | [8] -0.171

SELENOI (UniProt Q9C0D9)
inactive: erlotinib -0.079 | [2] 0.039 | [4] -0.115 | [5] 0.017 | [7] -0.049 | [8] 0.209 | IRAK-1-4 Inhibitor I 0.009

SBSN (UniProt Q6UWP8)
inactive: erlotinib 0.458 | [2] -0.038

SELENON (UniProt Q9NZV5)
inactive: erlotinib 0.117 | [2] -0.111

SASH1 (UniProt O94885)
inactive: erlotinib -0.015 | [2] -0.07 | [4] 0.004 | [5] 0.076 | [7] 0.002 | [8] -0.022 | IRAK-1-4 Inhibitor I -0.038

SARM1 (UniProt Q6SZW1)
inactive: erlotinib -0.102 | [2] 0.081

SEMA7A (UniProt O75326)
inactive: erlotinib -0.001 | [1] -0.035 | [2] 0.074 | [3] -0.007 | [4] -0.075 | [5] -0.079 | [6] -0.079 | [7] -0.149 | [8] 0.107 | IRAK-1-4 Inhibitor I 0.029

SAP130 isoform 3 (UniProt Q9H0E3)
inactive: erlotinib 0.038 | [1] -0.108 | [2] -0.062 | [3] 0.052 | [5] 0.046 | [6] -0.084 | [7] -0.113 | [8] 0.052 | IRAK-1-4 Inhibitor I 0.169

SAE1 (UniProt M0R286)
inactive: erlotinib -0.006 | [1] -0.061 | [2] 0.078 | [3] -0.151 | [6] 0.015 | [7] -0.088 | [8] -0.001

SBDS (UniProt Q9Y3A5)
inactive: erlotinib 0.016 | [1] -0.007 | [2] 0.008 | [3] 0.023 | [4] -0.009 | [5] 0.005 | [6] 0.014 | [7] -0.017 | [8] -0.011 | IRAK-1-4 Inhibitor I 0.014

SEC11A (UniProt P67812)
inactive: erlotinib 0.021 | [1] 0.006 | [2] -0.046 | [3] 0.013 | [4] 0.002 | [5] -0.016 | [6] -0.03 | [7] -0.05 | [8] -0.006 | IRAK-1-4 Inhibitor I -0.001

SCG3 (UniProt Q8WXD2)
inactive: erlotinib -0.037 | [1] -0.041 | [2] -0.008 | [3] -0.031 | [6] -0.116 | [7] 0.07 | [8] -0.006

SDHAF4 (UniProt Q5VUM1)
inactive: erlotinib -0.036 | [1] 0.068 | [2] -0.025 | [3] -0.074 | [4] -0.083 | [6] -0.064 | [7] 0.038 | [8] 0.022

SCGB1D2 (UniProt O95969)
inactive: erlotinib 0.173 | [2] -0.436 | [4] 0.226 | [5] 0.159 | [7] -0.007 | [8] -0.388 | IRAK-1-4 Inhibitor I -0.562

SEC31A (UniProt H0YAB3)
inactive: erlotinib 0.029 | [2] 0.003 | [4] -0.019 | [5] -0.002 | IRAK-1-4 Inhibitor I -0.003

SELENOF (UniProt O60613)
inactive: erlotinib 0.037 | [1] 0.017 | [2] 0.037 | [3] -0.001 | [4] -0.049 | [5] 0.006 | [6] 0.044 | [7] 0.09 | [8] 0.038 | IRAK-1-4 Inhibitor I -0.016
